Assay results as given in patent publication US12465616B2, “Methods and compositions for disrupting biofilm utilizing chitosan-derivative compounds” (SYNEDGEN, INC., priority 2009, dated 2025).

Test system: Pseudomonas aeruginosa
Assay: Tobramycin synergy checkerboard assay (MIC, FIC)
Format: cell-based
Details: 20 h, 20 hours at 37° C., about 10^5 cells per mL, read-out: MIC Antimicrobial Alone
Procedure: A checkerboard assay was used to screen 64 unique combinations of antimicrobial concentrations in triplicate. For each study, approximately 10^5 cells per mL were treated with chitosan-arginine (64-0.5 μg/mL) and/or tobramycin (4-0.031 μg/mL). Bacteria were incubated at 37° C. for 20 hours. The fluorescent pigment pyocyanin produced by Pseudomonas aeruginosa can be correlated with bacterial growth. The Minimum Inhibitory Concentration (MIC) values obtained with this protocol (fluorescence was measured 485 nm excitation, 535 nm emission) are the same as those obtained using optical density (Hoffman et. al., 2005).
Three independent checkerboard assays were completed in triplicate using different lots of chitosan-arginine and tobramycin with the MIC of each antimicrobial alone reported in Table 6 (column 1). The amounts of chitosan-arginine (μg/ml) co-administered are in bold. The tobramycin MIC reported in response to co-administered C/A is noted above the bolded values. It is clear that the addition of 0.5 μg/ml chitosan-arginine caused the MIC of tobramycin to be reduced 4 to 8-fold.
The FIC is an interaction coefficient indicating whether the combined inhibitory/bacteristatic effect of drugs is synergistic, additive or antagonistic (FIC=A+B) where: A=(MIC of X with Y)/(MIC of drug X alone) and, B=(MIC of Y with X)/(MIC of drug Y alone). […]

MIC: 0.5 µg/mL
Structure (SMILES): NC[C@H]1O[C@H](O[C@H]2[C@H](O)[C@@H](O[C@H]3O[C@H](CO)[C@@H](O)[C@H](N)[C@H]3O)[C@H](N)C[C@@H]2N)[C@H](N)C[C@@H]1O [Tobramycin]
